Inconclusive means that the source gave no clear call. Such entries were picked first, then a sample of the others. A potency beside an inconclusive call is a rough fit, not a confirmed value. Activity calls are given as the source filed them. Calls come from the whole dose curve; as a rule, active = well fitted inhibition curve with a large enough effect; inconclusive = small, poorly fitted or top-dose-only effect, or effect the other way; inactive = no such curve, though single readings can be large or run the other way.
Assay: qHTS Assay for Inhibitors of Fructose-1,6-bisphosphate Aldolase from Giardia Lamblia: Giardia lamblia growth inhibition (AID 2785); note: nearly all actives have a fitted effect of over 70% in size
Details: Giardia lamblia trophozoite growth inhibition; activity change, negative = inhibition: at 57.5 µM (top of the series)
Procedure, shortened: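 Whole-parasite growth test: Giardia WB trophozoites in TYI-S-33 (pH 7.0), 100 per well, incubated 48 h at 37C with compound. ATP content was read by ATPlite luminescence.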
% is set by controls: 0 for no effect and ±100 for the full control effect; potency is the fitted concentration of half-maximal effect.

Row | Compound | activity change, negative = inhibition | Potency
1 | CN(CC(=O)NCc1ccccc1)Cc1cccc(F)c1 | inactive: -29.9% | 
2 | CC(C)c1ccccc1OCC(O)CN1CCN(S(=O)(=O)c2ccc([N+](=O)[O-])cc2)CC1 (stereo not given) |  | active: 5.62 µM
3 | O=C(NC(=S)Nc1ccccc1[N+](=O)[O-])c1cncc(Br)c1 |  | active: 11.2 µM
4 | Cc1nc2ccc(NC(=S)N3CCC(C)CC3)cc2nc1C | inactive: -1.02% | 
5 | Cc1ccc(NC(=O)CNCc2ccccc2Cl)cc1S(=O)(=O)N(C)C |  | inconclusive: 251 µM [inhibitor, partial curve, poor fit]
6 | COc1ccc(NC(=O)C(NCC(C)C)c2ccccc2)cc1Cl (stereo not given) |  | inconclusive: 39.8 µM [inhibitor, single point]
7 | Cc1cccc(C(=O)Nc2nnc(C3=COCCO3)o2)c1 |  | inconclusive: 70.8 µM [inhibitor, single point]
8 | COc1ccc(C2C(C#N)=C(N)N(c3cccnc3)C3=C2C(=O)CC(C)(C)C3)cc1OC (stereo not given) | inactive: 25% | 
9 | Cc1ccc(C(=O)Nc2nnc(-c3ccncc3)o2)cc1 | inactive: -4.88% | 
10 | CC(C(=O)Nc1cccc([N+](=O)[O-])c1)[n+]1ccccc1 (stereo not given) |  | inconclusive: 8.91 µM [inhibitor, single point]
11 | CCCN1CCN(CC(=O)Nc2nnc(C)s2)CC1 | inactive: 25.6% | 
12 | Clc1cccc(OCCn2ccnc2)c1 | inconclusive: 50.6% [activator] | 
13 | COc1ccccc1OCC(=O)NNC(=O)c1cnccn1 |  | inconclusive: 70.8 µM [inhibitor, single point]
14 | CC(=O)Nc1ccc(S(=O)(=O)NNC(=S)NCC2CCCO2)cc1 (stereo not given) | inactive: 133% | 
15 | O=c1oc2ccccc2c(O)c1Cc1cc(Cl)c2cccnc2c1O |  | inconclusive: 44.7 µM [inhibitor, partial curve, poor fit]
16 | O=C(CNCc1cccs1)Nc1ccc(N2CCCCCC2)cc1 |  | inconclusive: 178 µM [inhibitor, partial curve, poor fit]
17 | CCOC(=O)c1ccc(N2CSC3=C(C#N)C(c4cccs4)CC(=O)N3C2)cc1 (stereo not given) | inactive: 25% | 
18 | Cc1nc(C(=O)NNC(=O)c2ccc(Cl)cc2)cs1 |  | inconclusive: 44.7 µM [inhibitor, single point]

Copied from the list.
Entry of CC(=O)Nc1ccc(S(=O)(=O)NNC(=S)NCC2CCCO2)cc1 (stereo not given) under activity change, negative = inhibition: inactive: 133%
Entry of COc1ccc(C2C(C#N)=C(N)N(c3cccnc3)C3=C2C(=O)CC(C)(C)C3)cc1OC (stereo not given) under activity change, negative = inhibition: inactive: 25%
Entry of O=C(CNCc1cccs1)Nc1ccc(N2CCCCCC2)cc1 under Potency: inconclusive: 178 µM [inhibitor, partial curve, poor fit]

Going on with the list:

Row | Compound | activity change, negative = inhibition | Potency
19 | O=C(O)c1ncn(Cc2ccccc2)c1C(=O)O |  | inconclusive: 7.94 µM [inhibitor, single point]
20 | CCCCC1(C)NC(=S)N2N1C(=S)NC2(C)CCCC (stereo not given) | inconclusive: 36.3% [activator] | 
21 | CC(C)OC(=O)CC1C(=O)NCCN1C(=S)NC(=O)c1ccccc1 (stereo not given) | inactive: -12.7% | 
22 | CCCn1nnc(NC(=S)NC(=O)CC)n1 |  | inconclusive: 35.5 µM [inhibitor, partial curve]
23 | CCN1CCN(CCCN(Cc2ccco2)C(=S)Nc2cc(Cl)ccc2C)CC1 |  | inconclusive: 44.7 µM [inhibitor, single point]
24 | CC(C)C(=O)NC(=S)Nc1nnn(C)n1 |  | inconclusive: 56.2 µM [inhibitor, partial curve]
25 | CC1=C(C#N)c2nc(N)c(C#N)c(C)c2/C1=C\c1ccc(OCC(=O)O)c(Cl)c1 | inconclusive: -39% [inhibitor] | 
26 | CCN(CC)c1ccc(N=Nc2ncn[nH]2)cc1 |  | inconclusive: 63.1 µM [inhibitor, partial curve, poor fit]
27 | COc1cccc(/C=C/C(=O)Nc2ccc(OC)nc2)c1 |  | inconclusive: 22.4 µM [inhibitor, single point]
28 | O=C(CC(NCc1ccccn1)C(=O)O)Nc1ccccc1Cl (stereo not given) |  | inconclusive: 28.2 µM [inhibitor, partial curve, poor fit]
29 | CN1CCCc2cc(C#N)c(=O)[nH]c21 | inactive: 27.9% | 
30 | Cc1ccc(C(C)C)c(OCC(=O)NN=C(CCl)CCl)c1 |  | inconclusive: 63.1 µM [inhibitor, single point]
31 | CN(c1ccccc1)S(=O)(=O)c1ccc(C(=O)Nc2nnc(C3=COCCO3)o2)cc1 |  | inconclusive: 63.1 µM [inhibitor, partial curve, poor fit]
32 | NC1=C(O)C(=O)C(c2ccccc2)O1 (stereo not given) | inactive: 6.25% [at 10.4 µM] | 
33 | COc1ccc(C)cc1Nc1n[n+](-c2ccccc2)c(-c2ccc(NC(C)=O)cc2)s1 | inconclusive: 30.5% [activator] | 
34 | CCN1CCN(CCOCCOc2ccccc2)CC1 | inconclusive: 48.4% [activator] | 
35 | COc1ccc(CN2CCN(Cc3ccccc3C(F)(F)F)CC2)c(OC)c1 |  | inconclusive: 28.2 µM [inhibitor, partial curve, poor fit]

Reference: PubChem BioAssay (NCATS)
